According to the supplement of paper PMC6411743:
± gives the standard deviation of the averaged measurements. The entries are a selection whose mix differs from that of the whole data set.

Protein sequences, listed by entry. Tags and fused reporters are not part of them. Lines headed by an entry give the natural chain unless they say otherwise; changes in a name come on top.
UniProt O43278: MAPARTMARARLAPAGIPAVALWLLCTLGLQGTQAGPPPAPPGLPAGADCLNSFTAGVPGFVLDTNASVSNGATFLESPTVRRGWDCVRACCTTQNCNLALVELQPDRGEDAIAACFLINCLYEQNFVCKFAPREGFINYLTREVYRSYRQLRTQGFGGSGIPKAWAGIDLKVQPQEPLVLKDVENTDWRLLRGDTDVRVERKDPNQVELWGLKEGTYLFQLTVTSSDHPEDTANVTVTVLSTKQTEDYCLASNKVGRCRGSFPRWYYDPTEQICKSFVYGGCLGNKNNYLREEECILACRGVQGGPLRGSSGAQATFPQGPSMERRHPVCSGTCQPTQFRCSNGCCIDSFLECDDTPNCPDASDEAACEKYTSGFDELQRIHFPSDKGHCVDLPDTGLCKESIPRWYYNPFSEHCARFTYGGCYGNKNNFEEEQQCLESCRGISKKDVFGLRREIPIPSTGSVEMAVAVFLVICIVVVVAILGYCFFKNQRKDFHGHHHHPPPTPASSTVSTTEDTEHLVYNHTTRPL
UniProt O14593: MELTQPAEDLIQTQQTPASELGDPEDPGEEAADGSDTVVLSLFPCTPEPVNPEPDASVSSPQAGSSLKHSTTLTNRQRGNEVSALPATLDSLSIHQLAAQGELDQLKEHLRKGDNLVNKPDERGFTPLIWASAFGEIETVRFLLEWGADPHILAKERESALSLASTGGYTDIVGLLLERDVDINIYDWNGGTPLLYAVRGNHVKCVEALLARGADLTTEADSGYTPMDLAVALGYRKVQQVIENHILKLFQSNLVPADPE
UniProt O14964, whole entry: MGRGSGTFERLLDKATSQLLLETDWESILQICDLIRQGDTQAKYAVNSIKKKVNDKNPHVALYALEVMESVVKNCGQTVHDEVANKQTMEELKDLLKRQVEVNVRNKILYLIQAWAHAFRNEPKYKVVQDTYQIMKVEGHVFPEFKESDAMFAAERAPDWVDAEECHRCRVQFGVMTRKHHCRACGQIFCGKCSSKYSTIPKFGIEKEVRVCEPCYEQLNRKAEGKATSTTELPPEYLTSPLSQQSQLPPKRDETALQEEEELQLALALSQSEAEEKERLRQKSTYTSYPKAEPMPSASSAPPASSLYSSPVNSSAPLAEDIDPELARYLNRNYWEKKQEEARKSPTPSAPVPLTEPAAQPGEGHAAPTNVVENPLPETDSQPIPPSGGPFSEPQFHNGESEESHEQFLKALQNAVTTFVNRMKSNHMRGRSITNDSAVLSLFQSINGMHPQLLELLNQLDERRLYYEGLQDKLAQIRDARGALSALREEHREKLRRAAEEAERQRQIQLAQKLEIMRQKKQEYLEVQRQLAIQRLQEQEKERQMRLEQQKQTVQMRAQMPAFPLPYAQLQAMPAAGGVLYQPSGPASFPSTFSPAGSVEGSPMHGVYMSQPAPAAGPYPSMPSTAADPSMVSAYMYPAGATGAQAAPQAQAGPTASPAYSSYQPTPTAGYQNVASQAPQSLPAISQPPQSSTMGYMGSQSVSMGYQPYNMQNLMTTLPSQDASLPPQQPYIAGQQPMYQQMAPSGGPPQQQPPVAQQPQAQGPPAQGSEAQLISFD
UniProt O43181, whole entry: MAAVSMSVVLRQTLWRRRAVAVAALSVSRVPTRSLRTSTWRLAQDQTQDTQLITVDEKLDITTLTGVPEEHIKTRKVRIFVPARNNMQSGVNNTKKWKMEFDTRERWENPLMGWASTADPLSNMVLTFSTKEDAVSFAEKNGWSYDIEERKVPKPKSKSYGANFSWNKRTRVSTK
UniProt O43633: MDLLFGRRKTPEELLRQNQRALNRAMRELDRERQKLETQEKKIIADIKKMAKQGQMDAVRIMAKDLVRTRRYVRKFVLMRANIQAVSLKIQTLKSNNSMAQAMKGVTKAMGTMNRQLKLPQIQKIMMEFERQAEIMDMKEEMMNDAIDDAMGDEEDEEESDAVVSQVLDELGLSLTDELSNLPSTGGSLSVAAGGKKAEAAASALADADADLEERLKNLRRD
UniProt O43299: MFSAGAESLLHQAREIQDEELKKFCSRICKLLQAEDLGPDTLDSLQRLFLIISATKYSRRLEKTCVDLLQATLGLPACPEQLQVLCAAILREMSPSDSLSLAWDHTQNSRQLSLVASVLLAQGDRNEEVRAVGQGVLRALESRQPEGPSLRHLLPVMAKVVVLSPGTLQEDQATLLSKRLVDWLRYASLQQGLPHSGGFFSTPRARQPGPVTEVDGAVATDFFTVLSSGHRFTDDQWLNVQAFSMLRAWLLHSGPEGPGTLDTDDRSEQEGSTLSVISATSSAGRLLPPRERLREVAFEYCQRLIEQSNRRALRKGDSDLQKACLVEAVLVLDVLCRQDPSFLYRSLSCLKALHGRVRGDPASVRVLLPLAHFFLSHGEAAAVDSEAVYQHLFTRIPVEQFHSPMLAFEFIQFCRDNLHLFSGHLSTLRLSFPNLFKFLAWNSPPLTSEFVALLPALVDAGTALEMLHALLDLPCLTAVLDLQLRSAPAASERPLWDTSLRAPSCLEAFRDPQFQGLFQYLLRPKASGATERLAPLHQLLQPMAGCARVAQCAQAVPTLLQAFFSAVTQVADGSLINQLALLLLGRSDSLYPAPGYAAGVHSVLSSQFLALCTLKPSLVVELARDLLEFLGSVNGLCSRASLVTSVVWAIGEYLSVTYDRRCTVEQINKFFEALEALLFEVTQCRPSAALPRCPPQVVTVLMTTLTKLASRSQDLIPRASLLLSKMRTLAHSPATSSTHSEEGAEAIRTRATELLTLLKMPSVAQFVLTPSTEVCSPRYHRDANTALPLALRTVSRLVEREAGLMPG
UniProt O43295: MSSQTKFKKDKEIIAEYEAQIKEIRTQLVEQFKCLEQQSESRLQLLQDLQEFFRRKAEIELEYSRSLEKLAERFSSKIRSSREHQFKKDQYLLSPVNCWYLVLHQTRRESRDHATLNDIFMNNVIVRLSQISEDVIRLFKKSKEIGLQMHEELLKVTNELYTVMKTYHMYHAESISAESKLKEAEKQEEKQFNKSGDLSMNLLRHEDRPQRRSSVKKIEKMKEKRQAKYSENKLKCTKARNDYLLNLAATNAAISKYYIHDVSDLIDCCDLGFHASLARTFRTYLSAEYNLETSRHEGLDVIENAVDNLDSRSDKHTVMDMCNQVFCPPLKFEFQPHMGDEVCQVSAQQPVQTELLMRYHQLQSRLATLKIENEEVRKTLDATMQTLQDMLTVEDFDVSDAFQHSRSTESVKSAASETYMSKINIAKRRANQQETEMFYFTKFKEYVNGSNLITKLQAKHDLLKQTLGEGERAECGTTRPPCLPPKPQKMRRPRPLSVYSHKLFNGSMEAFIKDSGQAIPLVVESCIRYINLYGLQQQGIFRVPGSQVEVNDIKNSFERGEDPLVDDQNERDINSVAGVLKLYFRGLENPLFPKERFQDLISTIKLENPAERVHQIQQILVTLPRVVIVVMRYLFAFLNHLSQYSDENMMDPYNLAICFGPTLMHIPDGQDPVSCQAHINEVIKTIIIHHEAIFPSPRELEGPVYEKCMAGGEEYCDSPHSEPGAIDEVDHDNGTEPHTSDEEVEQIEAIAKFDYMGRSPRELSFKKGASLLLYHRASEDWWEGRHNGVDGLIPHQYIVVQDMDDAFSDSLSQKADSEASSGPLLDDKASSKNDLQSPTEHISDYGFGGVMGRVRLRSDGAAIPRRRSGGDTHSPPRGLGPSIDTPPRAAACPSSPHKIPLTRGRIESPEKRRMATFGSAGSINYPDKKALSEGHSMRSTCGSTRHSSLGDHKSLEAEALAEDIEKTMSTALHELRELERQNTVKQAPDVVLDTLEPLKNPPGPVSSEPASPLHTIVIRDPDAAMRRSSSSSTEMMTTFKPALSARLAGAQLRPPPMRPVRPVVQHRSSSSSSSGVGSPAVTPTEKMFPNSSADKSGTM
UniProt O14777: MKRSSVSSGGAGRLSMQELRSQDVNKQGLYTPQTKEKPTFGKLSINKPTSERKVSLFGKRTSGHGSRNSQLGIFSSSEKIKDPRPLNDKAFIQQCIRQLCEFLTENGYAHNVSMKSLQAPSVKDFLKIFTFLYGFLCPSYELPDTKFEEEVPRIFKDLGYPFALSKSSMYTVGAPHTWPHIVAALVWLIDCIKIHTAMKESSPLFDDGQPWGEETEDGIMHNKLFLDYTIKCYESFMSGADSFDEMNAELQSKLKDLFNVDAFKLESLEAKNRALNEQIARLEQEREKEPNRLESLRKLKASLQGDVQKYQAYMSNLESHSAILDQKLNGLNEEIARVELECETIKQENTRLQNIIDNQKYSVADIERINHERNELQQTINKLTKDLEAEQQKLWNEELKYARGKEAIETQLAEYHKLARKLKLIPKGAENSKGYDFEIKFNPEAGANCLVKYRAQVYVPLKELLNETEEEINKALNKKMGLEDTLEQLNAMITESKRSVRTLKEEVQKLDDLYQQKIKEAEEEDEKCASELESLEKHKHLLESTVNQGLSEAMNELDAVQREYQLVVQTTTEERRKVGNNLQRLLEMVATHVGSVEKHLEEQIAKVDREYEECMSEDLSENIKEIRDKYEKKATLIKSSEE
UniProt Q9NWS0, whole entry: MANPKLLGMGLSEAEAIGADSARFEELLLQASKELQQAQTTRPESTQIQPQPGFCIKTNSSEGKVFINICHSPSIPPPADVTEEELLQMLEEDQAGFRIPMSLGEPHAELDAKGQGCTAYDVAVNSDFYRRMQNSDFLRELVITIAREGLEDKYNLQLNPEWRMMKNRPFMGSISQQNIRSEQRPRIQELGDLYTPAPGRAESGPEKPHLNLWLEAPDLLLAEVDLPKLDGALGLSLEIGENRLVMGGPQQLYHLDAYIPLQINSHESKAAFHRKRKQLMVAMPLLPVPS
UniProt O00329: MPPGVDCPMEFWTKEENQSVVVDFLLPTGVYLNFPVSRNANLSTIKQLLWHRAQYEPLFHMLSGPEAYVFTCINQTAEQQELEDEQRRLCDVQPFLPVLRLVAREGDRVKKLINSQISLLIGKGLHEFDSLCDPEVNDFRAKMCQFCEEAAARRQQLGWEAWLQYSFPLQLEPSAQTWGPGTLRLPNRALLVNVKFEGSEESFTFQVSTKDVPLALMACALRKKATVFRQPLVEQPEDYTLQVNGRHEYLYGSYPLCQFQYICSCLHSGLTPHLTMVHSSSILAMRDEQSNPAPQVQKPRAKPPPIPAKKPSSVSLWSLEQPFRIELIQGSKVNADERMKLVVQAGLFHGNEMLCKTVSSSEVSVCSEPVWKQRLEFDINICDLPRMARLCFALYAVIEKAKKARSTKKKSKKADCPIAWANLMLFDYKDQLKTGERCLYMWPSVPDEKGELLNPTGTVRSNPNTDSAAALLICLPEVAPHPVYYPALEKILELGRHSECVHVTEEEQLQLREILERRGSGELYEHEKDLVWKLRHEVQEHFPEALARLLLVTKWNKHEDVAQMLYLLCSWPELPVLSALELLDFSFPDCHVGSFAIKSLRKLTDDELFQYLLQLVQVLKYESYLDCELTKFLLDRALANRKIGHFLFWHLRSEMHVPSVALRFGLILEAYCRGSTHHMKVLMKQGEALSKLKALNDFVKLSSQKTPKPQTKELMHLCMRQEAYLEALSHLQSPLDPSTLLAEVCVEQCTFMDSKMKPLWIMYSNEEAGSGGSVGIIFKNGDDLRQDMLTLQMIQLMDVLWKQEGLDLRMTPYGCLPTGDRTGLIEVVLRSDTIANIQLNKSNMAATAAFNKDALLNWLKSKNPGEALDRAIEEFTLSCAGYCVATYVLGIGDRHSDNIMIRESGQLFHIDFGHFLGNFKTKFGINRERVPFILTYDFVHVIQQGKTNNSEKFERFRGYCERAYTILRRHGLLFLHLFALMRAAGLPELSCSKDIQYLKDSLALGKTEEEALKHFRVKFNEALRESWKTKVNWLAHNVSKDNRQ
UniProt O43823: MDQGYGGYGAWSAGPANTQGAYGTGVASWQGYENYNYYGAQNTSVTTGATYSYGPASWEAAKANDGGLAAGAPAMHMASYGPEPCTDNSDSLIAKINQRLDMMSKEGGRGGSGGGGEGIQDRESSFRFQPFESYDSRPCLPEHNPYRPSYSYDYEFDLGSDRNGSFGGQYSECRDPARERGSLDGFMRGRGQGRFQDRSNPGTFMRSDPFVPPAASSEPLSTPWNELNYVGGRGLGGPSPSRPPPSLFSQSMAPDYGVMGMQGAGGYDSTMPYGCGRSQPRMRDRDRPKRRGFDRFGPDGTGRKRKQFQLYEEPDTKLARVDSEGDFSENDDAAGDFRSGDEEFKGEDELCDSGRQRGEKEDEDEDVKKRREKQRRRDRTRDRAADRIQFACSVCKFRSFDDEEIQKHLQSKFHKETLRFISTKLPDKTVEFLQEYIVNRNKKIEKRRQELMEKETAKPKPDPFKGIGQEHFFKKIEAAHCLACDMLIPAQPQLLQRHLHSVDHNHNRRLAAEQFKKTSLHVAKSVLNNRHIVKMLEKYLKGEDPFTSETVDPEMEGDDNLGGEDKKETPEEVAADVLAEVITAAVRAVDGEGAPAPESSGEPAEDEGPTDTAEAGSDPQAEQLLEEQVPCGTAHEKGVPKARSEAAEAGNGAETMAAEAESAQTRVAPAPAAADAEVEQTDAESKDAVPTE

Compound: Nc1ncnc2c1ncn2[C@@H]1O[C@H](COP(=O)(O)OP(=O)(O)OP(=O)(O)O)[C@@H](O)[C@H]1O [adenosine triphosphate]
Test: NP40-soluble protein abundance relative to vehicle (solubility fold change) (ratio); higher = more soluble protein in presence of ATP
Summary of the method: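 In three independent experiments, Jurkat crude lysate made by Dounce homogenisation was treated for 10 min at room temperature and then 3 min at 37 °C with eight concentrations ranging from 0.1 to 10 mM. It was then solubilised with 0.8% NP40 plus benzonase for 60 min at 4 °C and ultracentrifuged. The supernatant was TMT-labelled for LC-MS/MS, and each value is the fold change against the detergent-processed vehicle for the same replicate, using vsn-normalised intensities.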

| Target | NP40-soluble protein abundance (concentration: 1mM) | NP40-soluble protein abundance (concentration: 2mM) | NP40-soluble protein abundance (concentration: 4mM) | NP40-soluble protein abundance (concentration: 6mM) | NP40-soluble protein abundance (concentration: 8mM) | NP40-soluble protein abundance (concentration: 10mM) |
| --- | --- | --- | --- | --- | --- | --- |
| ZZEF1 (UniProt O43149) | 1.05 ± 0.067 | 1.01 ± 0.039 | 0.993 ± 0.043 | 0.986 ± 0.1 | 1.02 ± 0.047 | 0.997 ± 0.086 |
| UniProt O43278 and related entries | 0.966 ± 0.04 | 0.972 ± 0.04 | 0.974 ± 0.027 | 0.961 ± 0.02 | 0.945 ± 0.05 | 0.932 ± 0.038 |
| UniProt O14593 and related entries | 1.06 ± 0.075 | 0.953 ± 0.11 | 0.985 ± 0.17 | 1 ± 0.13 | 0.987 ± 0.032 | 1.01 ± 0.057 |
| UniProt O00182 and related entries | 1.06 ± 0.071 | 0.996 ± 0.045 | 1.05 ± 0.072 | 0.969 ± 0.053 | 1.03 ± 0.048 | 1.02 ± 0.073 |
| UniProt O43760 and related entries | 0.8141 ± 0.0031 | 0.895 ± 0.046 | 0.948 ± 0.11 | 0.86 ± 0.018 | 0.853 ± 0.057 | 0.889 ± 0.058 |
| HGS (UniProt O14964) | 0.9266 ± 0.0021 | 0.938 ± 0.019 | 0.91 ± 0.0095 | 0.934 ± 0.043 | 0.904 ± 0.035 | 0.923 ± 0.029 |
| NDUFS4 (UniProt O43181) | 0.967 ± 0.039 | 0.945 ± 0.033 | 0.905 ± 0.017 | 0.963 ± 0.11 | 0.918 ± 0.062 | 0.909 ± 0.037 |
| M0R0F0 and related entries (UniProt P46782) | 0.898 ± 0.066 | 0.886 ± 0.11 | 0.837 ± 0.091 | 0.825 ± 0.1 | 0.757 ± 0.073 | 0.812 ± 0.083 |
| UniProt O15371 and related entries | 1.03 ± 0.049 | 1.09 ± 0.051 | 1.2 ± 0.051 | 1.27 ± 0.046 | 1.45 ± 0.034 | 1.57 ± 0.057 |
| CHMP2A (UniProt O43633) | 0.996 ± 0.055 | 1 ± 0.028 | 1.03 ± 0.016 | 1.02 ± 0.049 | 1.05 ± 0.068 | 0.936 ± 0.14 |
| MAST3 (UniProt O60307) | 1.3 ± 0.14 | 1.33 ± 0.15 | 1.34 ± 0.2 | 1.33 ± 0.14 | 1.28 ± 0.14 | 1.31 ± 0.12 |
| PPIH (UniProt O43447) | 0.959 ± 0.011 | 0.9684 ± 0.0069 | 0.946 ± 0.015 | 0.978 ± 0.043 | 0.947 ± 0.0034 | 0.979 ± 0.027 |
| UniProt O43299 and related entries | 1.09 ± 0.1 | 0.99 ± 0.11 | 1.11 ± 0.15 | 1.08 ± 0.32 | 1.09 ± 0.098 | 1.13 ± 0.19 |
| UniProt O60341 | 1.02 ± 0.035 | 1.02 ± 0.027 | 1 ± 0.021 | 1 ± 0.011 | 1.04 ± 0.041 | 1.07 ± 0.058 |
| MRPS12 (UniProt O15235) | 0.928 ± 0.019 | 0.907 ± 0.072 | 0.873 ± 0.11 | 0.787 ± 0.13 | 0.828 ± 0.17 | 0.831 ± 0.13 |
| ARPC2 (UniProt O15144) | 1.05 ± 0.078 | 1.02 ± 0.081 | 0.969 ± 0.074 | 0.975 ± 0.12 | 1.02 ± 0.066 | 0.984 ± 0.061 |
| GNPAT (UniProt O15228) | 1.02 ± 0.13 | 1.02 ± 0.089 | 0.967 ± 0.084 | 0.933 ± 0.12 | 0.981 ± 0.075 | 0.964 ± 0.048 |
| ARPC3 (UniProt O15145) | 1.04 ± 0.11 | 0.968 ± 0.028 | 0.946 ± 0.093 | 0.945 ± 0.03 | 0.997 ± 0.054 | 0.894 ± 0.063 |
| UniProt O43295 and related entries | 0.946 ± 0.045 | 1.02 ± 0.12 | 1 ± 0.053 | 0.959 ± 0.05 | 0.94 ± 0.051 | 0.93 ± 0.075 |
| NDC80 (UniProt O14777) | 0.927 ± 0.084 | 0.919 ± 0.081 | 0.917 ± 0.081 | 0.958 ± 0.11 | 0.908 ± 0.063 | 0.924 ± 0.037 |
| UniProt O15066 and related entries | 0.962 ± 0.063 | 0.95 ± 0.011 | 0.98 ± 0.022 | 0.985 ± 0.044 | 0.908 ± 0.015 | 0.9445 ± 0.0057 |
| M0R3A8 and related entries (UniProt Q9NWS0) | 1.01 ± 0.049 | 0.981 ± 0.03 | 0.989 ± 0.043 | 0.97 ± 0.076 | 0.985 ± 0.022 | 0.972 ± 0.046 |
| PIK3CD (UniProt O00329) | 1.04 ± 0.17 | 1.01 ± 0.11 | 1.05 ± 0.12 | 0.982 ± 0.13 | 1.09 ± 0.067 | 1.01 ± 0.095 |
| UniProt O00221 and related entries | 0.995 ± 0.1 | 0.994 ± 0.026 | 0.973 ± 0.061 | 1.02 ± 0.12 | 0.924 ± 0.093 | 0.938 ± 0.045 |
| UniProt O15265 and related entries | 1.09 ± 0.15 | 1.06 ± 0.1 | 1.11 ± 0.087 | 1.14 ± 0.11 | 1.12 ± 0.1 | 1.3 ± 0.14 |
| AKAP8 (UniProt O43823) | 0.974 ± 0.056 | 0.975 ± 0.047 | 0.973 ± 0.038 | 1.02 ± 0.052 | 0.996 ± 0.042 | 0.996 ± 0.035 |

Taken from the results shown for reference:

| Target | NP40-soluble protein abundance (concentration: 1mM) | NP40-soluble protein abundance (concentration: 2mM) | NP40-soluble protein abundance (concentration: 4mM) | NP40-soluble protein abundance (concentration: 6mM) | NP40-soluble protein abundance (concentration: 8mM) | NP40-soluble protein abundance (concentration: 10mM) |
| --- | --- | --- | --- | --- | --- | --- |
| HGS (UniProt O14964) | 0.9266 ± 0.0021 | 0.938 ± 0.019 | 0.91 ± 0.0095 | 0.934 ± 0.043 | 0.904 ± 0.035 | 0.923 ± 0.029 |
| NDUFS4 (UniProt O43181) | 0.967 ± 0.039 | 0.945 ± 0.033 | 0.905 ± 0.017 | 0.963 ± 0.11 | 0.918 ± 0.062 | 0.909 ± 0.037 |
